Measurements published in patent US7659053B2, “Methods of alteration of surface affinities using non-chemical force-creating fields” (President and Fellows of Harvard College, priority 2003, dated 2010).
Some entries repeat one wording, which the source may state once for all of them.

How the values were obtained:
[1] = SPR of protein adsorption on SAMs on palladium; settings: SAM on thin layer of Pd; data not shown
[2] = Ellipsometry of protein adsorbed on SAMs from fibroblast growth medium; settings: SAM on gold or palladium, 25° C., 12 hours
[3] = test system: motile mammalian cells; assay: Confinement of cells to micropatterns on SAM-coated gold substrates; format: cell-based; settings: C18-stamped pattern
[4] = test system: NIH 3T3 fibroblast cells; assay: Culture of NIH 3T3 fibroblasts on micropatterned SAMs on gold and palladium; format: cell-based
Experimental: To test the ability of SAMs on palladium to support the adhesion and growth of cells in micropatterns, certain features on the substrates were defined using microcontact printing, using techniques similar to those described above. A poly(dimethylsiloxane) (PDMS) stamp that carried microfeatures was inked with 2 mM octadecanethiol (C18) in ethanol, dried under a stream of nitrogen, then brought it into contact with the palladium films for 2 to 10 seconds. Next, the palladium film was immersed in ethanolic solutions containing 2 mM of thiols A, B, or C for up to 50 hours.
NIH 3T3 fibroblast cells were then cultured on these micropatterned substrates. […] In contrast, OEG-terminated SAMs on the same substrate prevented the adhesion of cells during the same times.

[5] = test system: motile mammalian cells; assay: Electrochemical release of patterned cells by desorbing the SAM; format: cell-based; settings: voltage applied about 30 seconds, SAM on gold
[6] = SPR of serum protein adsorption on SAM-coated gold after voltage pulses; settings: for coverage of proteins on initially SAM-coated sample: 30 s, relative to C18 SAM

Molecule | adsorption of proteins from the growth medium [1] | increase in thickness of organic/dielectric layer after incubation with fibroblast growth medium [2] | Time patterns of cells remained faithful to the original pattern [3] [days] | Minimal Voltage for Release [5] [V] | other results
OCCOCCOCCOCCOCCOCCOCCOCCCS [Compound 2, HS(CH2)3(OCH2CH2)7OH] | generally resisted the adsorption of proteins | no statistically significant increase | 4 to 10 | 0.6 | period SAM rendered the surface inert ([4]; SAM on palladium): 4-6 weeks
OCCOCCOCCOCCCCCCCCCCCS [Compound C11EG3, HS—(CH2)11—(O—CH2—CH2)3—OH] | generally resisted the adsorption of proteins | no statistically significant increase |  |  | coverage of proteins on initially SAM-coated sample ([6]; after about −1.0 V pulse): about 56 % of a monolayer; coverage of proteins on initially SAM-coated sample ([6]; after about −1.4 V pulse): ~100 % of a monolayer; coverage of proteins on initially SAM-coated sample ([6]; after about −1.8 V pulse): ~100 % of a monolayer
CCCCCCCCCCCCCCCCCCS [Compound C18, HS—(CH2)17—CH3] | strongly promote adsorption of proteins | about 2 nm |  |  | protein adsorptive capacity after voltage pulses ([6]; voltage pulses in the ranges tested): not found to change substantially
OCCOCCOCCOCCOCCOCCOCCCCCCCCCCCS [thiol B, HS(CH2)11(OCH2CH2)6OH] | generally resisted the adsorption of proteins | no statistically significant increase |  |  | period SAM remained inert ([4]; SAM on gold): about 2 weeks
HS(CH2)3(OCH2CH2)4-5OH [Compound 3] |  |  | 3 to 9 | 0.6 | 
HS(CH2)11(OCH2CH2)n=3-6OH [Compound 1] |  |  | 14 to 25 | 0.8 | 
